Laboratory results as given in US20230147962A1 (PHILOCHEM AG, priority 2020, published 2023).

Assay: general procedure: Fmoc solid-phase peptide synthesis; pre-loaded Fmoc-Cys(Trt) Tentagel resin (RAPP Polymere); HBTU/HOBt/DIPEA; HATU/DIPEA for ligand acid
Settings: for isolated mass / isolated yield: whole synthesis

(2R,5S,8S,11R)-8-(4-aminobutyl)-5,11-bis(carboxymethyl)-16-((4-((carboxymethyl)carbamoyl)quinolin-8-yl)amino)-2-(mercaptomethyl)-4,7,10,13,16-pentaoxo-3,6,9,12-tetraazahexadecanoic acid
isolated mass (scale 0.025 mmol): 2.4 mg
isolated yield (scale 0.025 mmol): 12%

(2R,5S,8S,11S)-8-(4-aminobutyl)-5,11-bis(carboxymethyl)-16-((4-((2-((S)-2-cyano-4,4-difluoropyrrolidin-1-yl)-2- oxoethyl)carbamoyl)quinolin-8-yl)amino)-2-(mercaptomethyl)-4,7,10,13,16-pentaoxo-3,6,9,12-tetraazahexadecanoic acid
isolated mass (scale 0.04 mmol): 1 mg
isolated yield (scale 0.04 mmol): 0.3%

AlbuTag-ESV6-Peptide
isolated mass: 6 mg
isolated yield (scale of the general procedure 0.415 mmol): 2%

ESV6-ValCit-MMAE
conjugation yield (conjugation step): 20%

SH-Cys-SH-Cys-Asp-Lys-Asp-ESV6
isolated mass (scale 0.04 mmol): 8 mg
isolated yield (scale 0.04 mmol): 2.4%
